Our source for the binding values is publication PMC9940370.

Protein sequences, listed by entry. Tags and fused reporters are not part of them.
UniProt P07355: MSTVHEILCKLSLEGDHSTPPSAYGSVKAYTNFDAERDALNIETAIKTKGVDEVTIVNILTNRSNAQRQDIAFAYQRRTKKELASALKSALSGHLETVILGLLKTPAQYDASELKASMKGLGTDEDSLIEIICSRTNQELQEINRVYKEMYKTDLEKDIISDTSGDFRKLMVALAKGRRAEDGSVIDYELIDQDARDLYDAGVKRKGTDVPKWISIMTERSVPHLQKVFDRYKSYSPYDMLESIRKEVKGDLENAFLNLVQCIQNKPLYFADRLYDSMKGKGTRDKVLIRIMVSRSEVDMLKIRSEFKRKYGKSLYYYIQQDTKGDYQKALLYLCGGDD

The assay deals with Flag-tagged ANXA2 (Flag-ANXA2) (UniProt P07355). Nature of the assay: co-IP; Flag immunoprecipitation: cell lysate (IP lysis buffer, protease inhibitors) incubated with anti-flag M2 affinity gel at 4 °C overnight, eluted with 3 × flag peptides, western blot. A general note: Immunoblotting shows a protein as a band on a membrane.

Results are given in words; binding and its absence hold for the method and conditions named. Binding seen in cells or lysates may run through a third protein. Some entries that bind do so weakly or less than the wild type. Sequences can lack the tags named with a protein.

B1: GFP-tagged AQP1 (GFP-AQP1) (protein, UniProt P29972-1 1-269)
chain: MASEFKKKLFWRAVVAEFLATTLFVFISIGSALGFKYPVGNNQTAVQDNVKVSLAFGLSIATLAQSVGHISGAHLNPAVTLGLLLSCQISIFRALMYIIAQCVGAIVATAILSGITSSLTGNSLGRNDLADGVNSGQGLGIEIIGTLQLVLCVLATTDRRRRDLGGSAPLAIGLSVALGHLLAIDYTGCGINPARSFGSAVITHNFSNHWIFWVGPFIGGALAVLIYDFILAPRSSDLTDRVKVWTSGQVEEYDLDADDINSRVEMKPK
Turning to B1, the binding entry is on record as “binds”.
